Amino acid sequences for entries named in this document (tags omitted). A change or cut given only in a name is not applied to a line headed by its entry.
UniProt O75940: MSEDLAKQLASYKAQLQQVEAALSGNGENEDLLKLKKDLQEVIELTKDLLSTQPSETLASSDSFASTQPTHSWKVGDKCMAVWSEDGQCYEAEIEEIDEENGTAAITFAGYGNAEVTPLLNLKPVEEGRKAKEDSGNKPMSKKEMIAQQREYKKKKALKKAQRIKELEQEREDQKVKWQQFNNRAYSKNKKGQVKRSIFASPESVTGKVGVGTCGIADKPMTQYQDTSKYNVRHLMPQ
UniProt Q9UHB9: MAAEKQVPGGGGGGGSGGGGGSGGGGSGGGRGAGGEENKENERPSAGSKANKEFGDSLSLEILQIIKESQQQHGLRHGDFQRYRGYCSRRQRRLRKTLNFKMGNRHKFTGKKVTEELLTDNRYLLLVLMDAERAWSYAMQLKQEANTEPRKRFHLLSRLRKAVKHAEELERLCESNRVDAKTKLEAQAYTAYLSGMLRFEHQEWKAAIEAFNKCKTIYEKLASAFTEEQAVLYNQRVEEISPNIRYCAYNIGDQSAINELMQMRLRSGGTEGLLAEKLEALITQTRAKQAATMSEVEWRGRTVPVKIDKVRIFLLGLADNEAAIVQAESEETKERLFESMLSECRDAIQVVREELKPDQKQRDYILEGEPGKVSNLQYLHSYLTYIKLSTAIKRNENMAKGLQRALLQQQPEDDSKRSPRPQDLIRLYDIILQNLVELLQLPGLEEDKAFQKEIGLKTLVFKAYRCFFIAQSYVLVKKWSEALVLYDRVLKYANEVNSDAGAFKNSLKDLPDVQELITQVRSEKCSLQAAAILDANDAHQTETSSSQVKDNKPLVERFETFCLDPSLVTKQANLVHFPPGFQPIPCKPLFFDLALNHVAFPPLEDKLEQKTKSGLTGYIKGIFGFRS
UniProt Q6P4A7: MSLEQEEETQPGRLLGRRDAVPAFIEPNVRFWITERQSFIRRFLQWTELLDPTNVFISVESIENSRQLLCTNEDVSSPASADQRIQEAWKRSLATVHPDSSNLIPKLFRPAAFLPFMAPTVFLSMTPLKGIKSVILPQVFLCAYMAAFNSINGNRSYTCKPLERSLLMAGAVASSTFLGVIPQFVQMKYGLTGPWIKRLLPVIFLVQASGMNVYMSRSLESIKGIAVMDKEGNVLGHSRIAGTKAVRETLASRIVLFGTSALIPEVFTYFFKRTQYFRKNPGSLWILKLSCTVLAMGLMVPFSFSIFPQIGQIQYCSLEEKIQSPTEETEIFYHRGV
UniProt Q969G6: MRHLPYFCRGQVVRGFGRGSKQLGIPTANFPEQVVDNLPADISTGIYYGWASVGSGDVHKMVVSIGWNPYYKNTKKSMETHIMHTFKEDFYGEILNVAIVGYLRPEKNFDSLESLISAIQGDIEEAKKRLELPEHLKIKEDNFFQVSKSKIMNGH
UniProt Q86SF2: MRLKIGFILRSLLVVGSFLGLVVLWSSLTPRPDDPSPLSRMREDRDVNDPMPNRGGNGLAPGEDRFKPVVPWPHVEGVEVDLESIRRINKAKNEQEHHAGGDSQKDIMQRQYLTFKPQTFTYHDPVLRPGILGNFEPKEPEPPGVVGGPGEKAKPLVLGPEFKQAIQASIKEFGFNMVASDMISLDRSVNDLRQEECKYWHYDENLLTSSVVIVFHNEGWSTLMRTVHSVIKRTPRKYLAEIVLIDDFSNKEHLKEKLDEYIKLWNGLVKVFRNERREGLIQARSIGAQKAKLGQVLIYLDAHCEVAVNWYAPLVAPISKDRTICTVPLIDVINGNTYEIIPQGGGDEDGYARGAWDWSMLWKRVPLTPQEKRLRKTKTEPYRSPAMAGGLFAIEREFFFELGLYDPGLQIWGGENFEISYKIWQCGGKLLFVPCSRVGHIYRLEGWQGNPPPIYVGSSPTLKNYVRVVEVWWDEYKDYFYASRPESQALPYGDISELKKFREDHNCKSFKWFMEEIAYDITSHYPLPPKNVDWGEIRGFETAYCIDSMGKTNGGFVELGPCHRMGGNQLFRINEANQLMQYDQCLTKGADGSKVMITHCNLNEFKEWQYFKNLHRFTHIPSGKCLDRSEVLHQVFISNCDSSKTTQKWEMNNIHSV
UniProt P49321, whole entry: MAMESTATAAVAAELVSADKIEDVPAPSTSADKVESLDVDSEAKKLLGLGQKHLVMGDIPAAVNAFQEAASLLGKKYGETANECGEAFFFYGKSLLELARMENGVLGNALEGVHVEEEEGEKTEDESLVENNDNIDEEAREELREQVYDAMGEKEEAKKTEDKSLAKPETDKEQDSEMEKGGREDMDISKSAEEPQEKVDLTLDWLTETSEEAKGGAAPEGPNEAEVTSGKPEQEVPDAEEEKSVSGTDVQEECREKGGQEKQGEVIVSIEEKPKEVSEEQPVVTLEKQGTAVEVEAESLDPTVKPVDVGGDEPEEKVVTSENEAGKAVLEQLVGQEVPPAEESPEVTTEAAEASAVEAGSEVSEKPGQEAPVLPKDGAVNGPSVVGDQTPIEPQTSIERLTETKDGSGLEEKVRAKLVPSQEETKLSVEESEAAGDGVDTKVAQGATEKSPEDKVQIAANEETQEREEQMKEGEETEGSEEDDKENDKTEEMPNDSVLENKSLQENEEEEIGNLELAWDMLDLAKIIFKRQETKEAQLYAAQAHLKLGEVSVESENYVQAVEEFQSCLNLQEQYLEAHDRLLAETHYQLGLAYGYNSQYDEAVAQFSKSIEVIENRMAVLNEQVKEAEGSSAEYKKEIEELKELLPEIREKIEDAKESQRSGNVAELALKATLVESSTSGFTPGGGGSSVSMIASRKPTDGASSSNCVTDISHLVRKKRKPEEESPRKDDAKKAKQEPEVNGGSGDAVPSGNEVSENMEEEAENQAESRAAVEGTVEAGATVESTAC
UniProt Q8NC54: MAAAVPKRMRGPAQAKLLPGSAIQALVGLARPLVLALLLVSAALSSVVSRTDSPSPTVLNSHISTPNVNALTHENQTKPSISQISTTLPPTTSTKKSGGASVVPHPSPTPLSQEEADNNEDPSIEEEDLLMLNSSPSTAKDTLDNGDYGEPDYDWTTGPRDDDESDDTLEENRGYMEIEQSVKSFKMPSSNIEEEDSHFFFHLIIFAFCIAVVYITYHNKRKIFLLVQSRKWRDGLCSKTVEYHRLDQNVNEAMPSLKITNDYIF
UniProt O95302: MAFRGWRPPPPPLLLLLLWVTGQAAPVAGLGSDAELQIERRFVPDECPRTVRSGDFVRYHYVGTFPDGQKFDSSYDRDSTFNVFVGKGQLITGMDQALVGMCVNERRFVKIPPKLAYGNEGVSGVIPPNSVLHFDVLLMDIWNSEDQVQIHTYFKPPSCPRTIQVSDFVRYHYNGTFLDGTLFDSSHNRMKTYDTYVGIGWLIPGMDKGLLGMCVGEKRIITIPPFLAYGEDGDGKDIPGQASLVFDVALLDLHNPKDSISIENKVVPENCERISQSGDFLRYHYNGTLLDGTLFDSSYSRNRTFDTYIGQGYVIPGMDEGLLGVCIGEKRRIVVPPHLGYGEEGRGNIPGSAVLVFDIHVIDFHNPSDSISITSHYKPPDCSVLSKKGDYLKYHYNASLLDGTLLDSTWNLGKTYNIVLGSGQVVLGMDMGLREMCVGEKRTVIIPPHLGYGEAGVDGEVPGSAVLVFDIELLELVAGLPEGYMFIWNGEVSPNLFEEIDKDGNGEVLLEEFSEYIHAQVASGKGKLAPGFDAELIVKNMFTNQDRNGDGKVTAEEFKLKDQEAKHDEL
UniProt P06396, whole entry: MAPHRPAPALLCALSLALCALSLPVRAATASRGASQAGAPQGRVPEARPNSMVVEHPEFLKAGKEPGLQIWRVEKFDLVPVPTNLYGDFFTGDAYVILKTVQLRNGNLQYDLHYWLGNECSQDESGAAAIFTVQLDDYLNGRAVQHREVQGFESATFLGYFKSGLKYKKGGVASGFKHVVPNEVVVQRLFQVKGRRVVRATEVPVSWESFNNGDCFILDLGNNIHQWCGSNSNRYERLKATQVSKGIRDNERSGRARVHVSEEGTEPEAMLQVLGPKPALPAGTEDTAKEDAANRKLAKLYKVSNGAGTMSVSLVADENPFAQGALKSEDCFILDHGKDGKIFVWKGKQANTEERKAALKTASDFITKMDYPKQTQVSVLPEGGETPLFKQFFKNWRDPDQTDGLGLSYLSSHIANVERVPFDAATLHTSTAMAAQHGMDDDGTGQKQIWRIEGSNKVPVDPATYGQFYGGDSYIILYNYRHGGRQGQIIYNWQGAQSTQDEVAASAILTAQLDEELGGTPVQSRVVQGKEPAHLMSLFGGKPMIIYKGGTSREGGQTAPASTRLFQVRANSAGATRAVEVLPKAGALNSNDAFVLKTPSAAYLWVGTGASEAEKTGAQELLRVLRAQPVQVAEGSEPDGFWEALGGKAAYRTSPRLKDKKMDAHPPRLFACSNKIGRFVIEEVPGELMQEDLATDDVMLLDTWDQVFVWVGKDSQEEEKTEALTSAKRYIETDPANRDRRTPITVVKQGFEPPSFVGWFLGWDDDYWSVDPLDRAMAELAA
UniProt O75208: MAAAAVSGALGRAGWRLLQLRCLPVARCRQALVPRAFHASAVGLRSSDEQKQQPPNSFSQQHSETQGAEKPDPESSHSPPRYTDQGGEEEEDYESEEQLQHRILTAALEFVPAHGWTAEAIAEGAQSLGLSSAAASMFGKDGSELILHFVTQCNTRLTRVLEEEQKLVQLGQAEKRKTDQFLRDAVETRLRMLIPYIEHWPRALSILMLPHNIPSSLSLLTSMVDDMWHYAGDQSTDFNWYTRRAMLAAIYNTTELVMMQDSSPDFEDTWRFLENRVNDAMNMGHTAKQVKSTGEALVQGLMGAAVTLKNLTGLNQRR
UniProt Q96QG7: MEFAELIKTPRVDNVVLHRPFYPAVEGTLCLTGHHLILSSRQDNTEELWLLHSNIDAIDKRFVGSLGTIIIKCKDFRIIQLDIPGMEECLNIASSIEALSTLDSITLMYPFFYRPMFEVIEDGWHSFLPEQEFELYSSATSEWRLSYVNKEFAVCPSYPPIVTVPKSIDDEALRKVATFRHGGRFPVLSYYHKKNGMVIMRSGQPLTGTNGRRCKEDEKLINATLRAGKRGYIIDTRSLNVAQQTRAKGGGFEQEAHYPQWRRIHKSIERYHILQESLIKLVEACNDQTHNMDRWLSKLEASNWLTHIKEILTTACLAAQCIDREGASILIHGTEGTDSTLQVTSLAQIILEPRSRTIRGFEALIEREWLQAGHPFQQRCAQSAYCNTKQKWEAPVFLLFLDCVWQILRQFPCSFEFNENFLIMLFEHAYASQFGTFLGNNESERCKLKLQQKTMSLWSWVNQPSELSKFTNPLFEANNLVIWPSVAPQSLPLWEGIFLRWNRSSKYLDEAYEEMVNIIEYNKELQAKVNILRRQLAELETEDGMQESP
UniProt Q9Y5V0: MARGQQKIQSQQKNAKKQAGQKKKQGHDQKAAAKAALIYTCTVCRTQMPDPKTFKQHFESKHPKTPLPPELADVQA
UniProt O94992, whole entry: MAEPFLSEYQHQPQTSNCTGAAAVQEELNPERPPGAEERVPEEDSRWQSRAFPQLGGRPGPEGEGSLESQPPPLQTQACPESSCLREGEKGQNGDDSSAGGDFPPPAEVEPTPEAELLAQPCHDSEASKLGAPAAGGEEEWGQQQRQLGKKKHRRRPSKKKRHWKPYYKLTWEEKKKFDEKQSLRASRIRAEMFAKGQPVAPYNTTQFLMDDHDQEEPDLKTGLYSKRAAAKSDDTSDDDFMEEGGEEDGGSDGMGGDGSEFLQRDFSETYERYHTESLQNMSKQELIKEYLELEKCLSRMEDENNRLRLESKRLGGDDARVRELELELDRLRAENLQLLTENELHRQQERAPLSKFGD
UniProt Q15629: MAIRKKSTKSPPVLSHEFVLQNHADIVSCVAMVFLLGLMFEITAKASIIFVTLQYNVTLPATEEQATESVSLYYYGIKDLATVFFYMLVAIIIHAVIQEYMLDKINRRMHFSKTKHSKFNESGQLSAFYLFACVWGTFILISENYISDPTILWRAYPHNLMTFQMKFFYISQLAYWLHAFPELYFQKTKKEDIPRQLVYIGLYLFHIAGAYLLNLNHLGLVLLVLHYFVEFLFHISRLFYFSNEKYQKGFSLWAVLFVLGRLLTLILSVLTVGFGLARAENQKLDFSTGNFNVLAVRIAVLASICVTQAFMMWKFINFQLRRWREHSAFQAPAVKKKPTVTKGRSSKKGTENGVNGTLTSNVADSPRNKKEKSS
UniProt Q16537, whole entry: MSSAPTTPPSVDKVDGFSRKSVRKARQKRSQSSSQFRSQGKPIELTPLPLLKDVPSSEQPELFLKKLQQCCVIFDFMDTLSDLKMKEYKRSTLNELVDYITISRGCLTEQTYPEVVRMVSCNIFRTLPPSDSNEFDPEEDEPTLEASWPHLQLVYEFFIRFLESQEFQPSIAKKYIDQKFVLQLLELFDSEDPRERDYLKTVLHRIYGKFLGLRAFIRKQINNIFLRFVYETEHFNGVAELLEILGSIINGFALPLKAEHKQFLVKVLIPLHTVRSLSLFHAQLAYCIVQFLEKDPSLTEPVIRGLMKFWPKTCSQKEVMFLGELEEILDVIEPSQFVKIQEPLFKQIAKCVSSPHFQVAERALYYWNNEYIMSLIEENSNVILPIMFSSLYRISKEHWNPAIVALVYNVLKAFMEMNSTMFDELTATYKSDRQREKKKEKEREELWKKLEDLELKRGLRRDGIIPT

According to the supplement of paper PMC10060354, “Discovery of a small molecule ligand of FRS2 that inhibits invasion and tumor growth” (Cellular Oncology, 2022):

Compound: [O-][N+](C(C1=C(C(O)=C2)NC(C(C=C3)=CC=C3Cl)C4C1C=CC4)=C2Cl)=O
Experiment: melting temperature shift (compound 7 minus DMSO); higher = compound stabilises the protein
Conditions: 10 µM
Protocol: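 Thermal proteome profiling (TMT mass spectrometry) in intact DAOY medulloblastoma cells or DAOY lysates treated with 10 µM compound 7 or DMSO, heated at 10 temperatures from 40.5 to 73.8 °C for 3 min. Melting curves were fitted with the Bioconductor TPP package, and the melting point difference between compound and vehicle is reported per protein (single curve per condition).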

[1] = system: DAOY cell lysate, treatment time: 20 min, 4 °C
[2] = system: intact DAOY cells, treatment time: 90 min, 37 °C

| Target | melting temperature shift [1] | melting temperature shift [2] |
| --- | --- | --- |
| CDC37 (UniProt Q16543) | -1.6 °C | 0.216 °C |
| FCHO2 (UniProt Q0JRZ9) | -0.825 °C | -0.00167 °C |
| UniProt P35227 |  | 1.3 °C |
| MBD3 (UniProt O95983) | -0.352 °C | -0.705 °C |
| SMNDC1 (UniProt O75940) | -3.43 °C | 0.869 °C |
| UniProt Q9UJ68 | -0.26 °C | -1.95 °C |
| PUS1 (UniProt Q9Y606) | -0.689 °C | -0.345 °C |
| DNAJC9 (UniProt Q8WXX5) | 0.34 °C | 1.05 °C |
| WDR47 (UniProt O94967) | -0.926 °C | 0.737 °C |
| AKT2 (UniProt P31751) | -0.681 °C | -0.354 °C |
| UniProt Q9BQ51 |  | -1.19 °C |
| KPNA6 (UniProt O60684) | -1.1 °C | -1.5 °C |
| PRPSAP2 (UniProt O60256) | -1.05 °C | -0.499 °C |
| SRP68 (UniProt Q9UHB9) | -0.121 °C | -0.713 °C |
| MGEA5 (UniProt O60502) | -0.372 °C | 0.199 °C |
| ZC3HAV1L (UniProt Q96H79) | -0.351 °C |  |
| FAM188A (UniProt Q9H8M7) | 0.376 °C | -0.685 °C |
| KIAA1522 (UniProt Q9P206) | -3.8 °C |  |
| CSE1L (UniProt P55060) | -0.269 °C | -1.5 °C |
| UniProt Q9ULX9 | -0.889 °C | 1.49 °C |
| ADD1 (UniProt P35611) | 0.527 °C | 0.104 °C |
| SFXN4 (UniProt Q6P4A7) | -2.96 °C | -0.252 °C |
| UniProt Q15669 |  | 0.196 °C |

| Target | melting temperature shift [1] | melting temperature shift [2] |
| --- | --- | --- |
| TOE1 (UniProt Q96GM8) | 0.157 °C | 0.427 °C |
| UniProt P49221 |  | 0.338 °C |
| LEO1 (UniProt Q8WVC0) | -0.116 °C | 1.25 °C |
| HYOU1 (UniProt Q9Y4L1) | 1.11 °C | 0.567 °C |
| PLOD1 (UniProt Q02809) | 0.967 °C | 0.519 °C |
| MRPS34 (UniProt P82930) | 0.0118 °C | -0.18 °C |
| ZMPSTE24 (UniProt O75844) | 1.42 °C | 0.694 °C |
| RFK (UniProt Q969G6) | 0.587 °C | -2.18 °C |
| GALNT7 (UniProt Q86SF2) | 0.965 °C | -1.04 °C |
| NASP (UniProt P49321) | -0.919 °C | 0.663 °C |
| KIAA1524 (UniProt Q8TCG1) | -1.03 °C | 0.268 °C |
| UniProt P04275 |  | -1.44 °C |
| VPS50 (UniProt Q96JG6) | -0.749 °C | -1.16 °C |
| EIF4A1 (UniProt P60842) | -0.488 °C | -0.0876 °C |
| MRPL32 (UniProt Q9BYC8) | 0.782 °C | -0.0442 °C |
| GRAMD1A (UniProt Q96CP6) |  | 2.58 °C |
| UniProt Q8NC54 | 0.372 °C |  |
| OGFOD3 (UniProt Q6PK18) | 3.01 °C |  |
| FKBP9 (UniProt O95302) | 1.14 °C | 1.25 °C |
| GORAB (UniProt Q5T7V8) | 2.73 °C |  |
| GSN (UniProt P06396) | 0.14 °C | -0.0184 °C |
| TOR3A (UniProt Q9H497) | 0.738 °C | 0.563 °C |
| COQ9 (UniProt O75208) | 1.39 °C | 1 °C |

A second format for part of the listing above.
Target	melting temperature shift [1]	melting temperature shift [2]
PLOD1 (UniProt Q02809)	0.967 °C	0.519 °C
MRPS34 (UniProt P82930)	0.0118 °C	-0.18 °C
ZMPSTE24 (UniProt O75844)	1.42 °C	0.694 °C
RFK (UniProt Q969G6)	0.587 °C	-2.18 °C
GALNT7 (UniProt Q86SF2)	0.965 °C	-1.04 °C
NASP (UniProt P49321)	-0.919 °C	0.663 °C
KIAA1524 (UniProt Q8TCG1)	-1.03 °C	0.268 °C

Following part:

| Target | melting temperature shift [1] | melting temperature shift [2] |
| --- | --- | --- |
| MTMR9 (UniProt Q96QG7) | 1.27 °C | -0.0279 °C |
| RPL10A (UniProt P62906) | 0.364 °C | -0.505 °C |
| AIF1L (UniProt Q9BQI0) | 4.39 °C | 1.55 °C |
| TRUB2 (UniProt O95900) | -3.71 °C | -0.78 °C |
| APP (UniProt P05067) | 0.288 °C |  |
| UniProt Q8TCA0 | -0.983 °C | -0.712 °C |
| UniProt Q96MU7 | 0.055 °C | 0.278 °C |
| THUMPD1 (UniProt Q9NXG2) | -2.21 °C | 0.114 °C |
| UniProt O14965 | -0.425 °C | 0.906 °C |
| UniProt Q5BKY9 |  | -1.33 °C |
| LRRC8D (UniProt Q7L1W4) | 0.119 °C | 0.639 °C |
| KDM5C (UniProt P41229) | 0.66 °C | -1.21 °C |
| ARHGAP35 (UniProt Q9NRY4) | -0.753 °C | 0.543 °C |
| POLA1 (UniProt P09884) | 0.0144 °C | 0.589 °C |
| WNK1 (UniProt Q9H4A3) | -0.66 °C | -0.848 °C |
| UniProt Q15113 | 0.933 °C | 0.339 °C |
| HSPA5 (UniProt P11021) | 1.09 °C | -0.652 °C |
| SLC1A4 (UniProt P43007) | -0.234 °C |  |
| MYL6 (UniProt P60660) | -4.61 °C | -0.23 °C |
| TOM1L2 (UniProt Q6ZVM7) | -0.323 °C | -0.0488 °C |
| TMEM209 (UniProt Q96SK2) | 1.52 °C | -1.1 °C |
| UniProt Q5T0B9 |  | -1.02 °C |
| HPRT1 (UniProt P00492) | -3.65 °C |  |

| Target | melting temperature shift [1] | melting temperature shift [2] |
| --- | --- | --- |
| ARID1A (UniProt O14497) | -1.25 °C | -0.551 °C |
| CNBP (UniProt P62633) | -2.55 °C |  |
| GPCPD1 (UniProt Q9NPB8) | -1.24 °C | 0.227 °C |
| ZNF706 (UniProt Q9Y5V0) | -0.247 °C |  |
| RAD50 (UniProt Q92878) | -0.601 °C | -1.19 °C |
| UniProt Q96AH0 | -0.995 °C | 0.955 °C |
| CD2AP (UniProt Q9Y5K6) | -0.371 °C | 0.135 °C |
| UniProt Q99666 | 1.33 °C |  |
| EMC2 (UniProt Q15006) | 1.3 °C | -0.457 °C |
| UniProt Q4KWH8 | 0.704 °C | -0.144 °C |
| HEXIM1 (UniProt O94992) | 0.15 °C |  |
| EWSR1 (UniProt Q01844) | -1.17 °C |  |
| BCAT2 (UniProt O15382) | 0.712 °C | 1.18 °C |
| NTMT1 (UniProt Q9BV86) | -1.04 °C | -0.102 °C |
| UniProt A6NEC2 |  | -0.0303 °C |
| KIF1B (UniProt O60333) | -0.188 °C | -0.143 °C |
| ITGA3 (UniProt P26006) | 2.97 °C |  |
| RPS19BP1 (UniProt Q86WX3) | 1.35 °C | -1.55 °C |
| UniProt Q9Y584 | 1.36 °C |  |
| UniProt Q13131 | -0.0567 °C | -0.402 °C |
| PM20D2 (UniProt Q8IYS1) | 3.59 °C |  |
| ZHX3 (UniProt Q9H4I2) | -0.216 °C |  |
| UniProt Q71UI9 | 1.49 °C | -0.686 °C |

Rewritten with each value named: part of the list above.
GALNT7 (UniProt Q86SF2)
  melting temperature shift [1] = 0.965 °C
  melting temperature shift [2] = -1.04 °C
NASP (UniProt P49321)
  melting temperature shift [1] = -0.919 °C
  melting temperature shift [2] = 0.663 °C

The list continues.

| Target | melting temperature shift [1] | melting temperature shift [2] |
| --- | --- | --- |
| TRAM1 (UniProt Q15629) | 1.03 °C |  |
| PCMT1 (UniProt P22061) | -0.608 °C | -0.274 °C |
| PPP2R5E (UniProt Q16537) |  | -0.388 °C |
| UniProt Q9UK61 | 1.38 °C | 1.57 °C |
| CALCOCO1 (UniProt Q9P1Z2) | -0.482 °C | 0.275 °C |
| UniProt Q9HCL0 |  | -0.309 °C |
| SLC25A17 (UniProt O43808) | -0.0172 °C |  |
| EHD2 (UniProt Q9NZN4) | -1.25 °C | -2.46 °C |
| MYBBP1A (UniProt Q9BQG0) | -0.307 °C | -0.881 °C |
| NDUFA12 (UniProt Q9UI09) | 3.1 °C | -0.301 °C |
| UniProt Q5HYJ3 | 0.637 °C |  |
| DOCK5 (UniProt Q9H7D0) | 0.108 °C | -0.985 °C |
| MAPKAPK2 (UniProt P49137) | -0.841 °C | 0.054 °C |
| RPS24 (UniProt P62847) | -1.26 °C | -0.464 °C |
| TBC1D9B (UniProt Q66K14) | -0.0105 °C |  |
| HSP90AA1 (UniProt P07900) | -0.71 °C | -0.253 °C |
| UniProt Q9UGH3 |  | 7.2 °C |
| TOP2A (UniProt P11388) | 0.455 °C | -0.224 °C |
| DPCD (UniProt Q9BVM2) | -1.1 °C |  |
| GRSF1 (UniProt Q12849) | 0.864 °C | 0.634 °C |
| UniProt Q9BTV5 | -1.74 °C | 0.3 °C |

Many values rest on one well or one pass, so single values are uncertain.
